Experimental data taken from PubChem BioAssay AID2685 (National Center for Advancing Translational Sciences (NCATS), 2010).
The list shows a part of the results. The main result of the screen is listed elsewhere. These columns were measured beside it and carry no call. Compounds called inactive in the main read-out are mostly missing here. The note in brackets gives the kind of curve behind each potency; many fits are weak.

Assay: qHTS Assay for Lipid Storage Modulators in Drosophila S3 Cells;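 for cell number change: cells counted by Cell Tracker Red CMTPX staining in the red channel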
Details: BODIPY lipid droplet fluorescence, 18-24 h; for cell number change: measured here: cell count max response, cells fed with added oleic acid
In short: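 Laser-scanning cytometry quantifies lipid droplet accumulation (500–530 nm total intensity; droplet/cell object ratio) in oleic acid-fed (400 uM added) Drosophila S3 cells treated with a concentration series. 20 uM Triacsin C defined 100% inhibition.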

[1] = measured here: lipid fluorescence (Fed channel) AC50, cells fed with added oleic acid
[2] = measured here: cell number channel AC50, cells fed with added oleic acid

| Compound | cell number change [%] | AC50 [1] | AC50 [2] |
| --- | --- | --- | --- |
| C=CCN1C(=O)CN=C1Nc1cc(C)cc(C)c1 | 0.78 | 32.6 µM [rising, single point] | – |
| CCOc1ccc(C(=O)NC(=S)NCc2cccnc2)cc1 | -16.7 | 2.59 µM [rising, full curve] | 3.26 µM [falling, single point] |
| CN(CC(=O)Nc1ncn[nH]1)S(=O)(=O)c1ccc(Br)cc1 | 9.68 | 25.9 µM [rising, single point] | – |
| COC(=O)c1ccccc1NC(=O)COc1ccc2c(c1)OCO2 | -9.39 | 16.4 µM [rising, single point] | – |
| CC1CCc2nn(CC(=O)NCCCN3CCOCC3)cc2C1 (stereo unspecified) | -48.3 | 5.17 µM [falling, partial curve, poor fit] | 2.31 µM [falling, partial curve, poor fit] |
| CC1(C)Cc2[nH]c(=O)c(C#N)cc2CS1 | -5.53 | 0.00517 µM [falling, full curve, poor fit] | – |
| CCC(C)(C)NC(=O)CN(CC1CCCO1)C(=O)CNS(=O)(=O)c1ccccc1 (stereo unspecified) | -20.5 | 5.17 µM [falling, single point] | – |
| Cc1nn(-c2ccc(C(=O)N3CCN(S(=O)(=O)c4ccccc4C(F)(F)F)CC3)cc2)c(C)c1Cl | -5.97 | – | – |
| CCn1c(SCC(=O)NC2CCCCC2)nnc1C(C)NC(=O)c1ccccc1F (stereo unspecified) | 12.6 | – | – |
| COc1cc(/C=C2\SC(=O)N(CCN)C2=O)ccc1OS(=O)(=O)c1cc(C)ccc1C | -29.7 | 1.46 µM [falling, partial curve] | – |
| CCOc1ccc(CCNC(=O)c2cccs2)cc1OCC | -34.8 | – | 29.1 µM [falling, single point] |
| Cc1ccccc1OCCNc1cc(N2CC(C)NC(C)C2)ccc1[N+](=O)[O-] (stereo unspecified) | 4.08 | 0.82 µM [rising, partial curve, poor fit] | – |
| NC(=O)c1ccsc1NC(=O)COC(=O)c1cnccn1 | -51.8 | 23.1 µM [falling, single point] | 18.4 µM [falling, single point] |
| CCCCn1c(N)c(N(CC)C(=O)c2cc(S(=O)(=O)N3CCCCCC3)ccc2OC)c(=O)[nH]c1=O | 1.5 | – | – |
| CCOC(=O)Cn1c2c(c(=N)c3c1CCC3)CCCC2 | -13.4 | – | 0.731 µM [falling, full curve, poor fit] |
| COCCNc1nc(SCC(=O)N2CCN(c3ccccc3OC)CC2)nc2ccccc12 | -40.3 | 1.46 µM [falling, full curve] | 29.1 µM [falling, single point] |
| O=C(CCCN1C(=O)/C(=C/c2cccs2)SC1=S)Nc1ccc(C(=O)O)cc1 | 26.9 | – | – |
| CCC(=O)N1c2ccc(S(=O)(=O)NCCc3ccccc3)cc2CC1C (stereo unspecified) | -4.61 | 16.4 µM [rising, partial curve] | – |
| Cc1ccccc1C(=O)NC(NC(=S)Nc1ccc(S(N)(=O)=O)cc1)C(Cl)(Cl)Cl (stereo unspecified) | 13 | – | – |
| CCOC(=O)c1c(NC(=O)CSc2nc3cc(Cl)ccc3s2)sc(C(C)=O)c1C | 125 | – | 29.1 µM [rising, partial curve, poor fit] |

| Compound | cell number change [%] | AC50 [1] | AC50 [2] |
| --- | --- | --- | --- |
| O=C(/C=C1\NC2(CCCC2)Cc2ccccc21)N1CCOCC1 | – | 3.26 µM [falling, partial curve, poor fit] | – |
| CC(Oc1ccc(Cl)cc1Cl)c1ccn[nH]1 (stereo unspecified) | -14 | – | 4.11 µM [falling, single point] |
| COc1ccccc1NC(=O)CNC(=O)c1ccccc1C | 50.8 | – | 13 µM [rising, partial curve] |
| COc1ccc(S(=O)(=O)N(CC(=O)NC(C)C)Cc2ccccc2)cc1 | 53.8 | 1.46 µM [rising, partial curve, poor fit] | 11.6 µM [rising, partial curve] |
| Cc1ccc(-n2ncc3c2CC(C)(C)CC3NC(=O)c2ccccn2)cc1 (stereo unspecified) | -13.7 | – | – |
| CCCn1c(N)c(C(=O)CSc2nc(C)nc3sc(C)c(C)c23)c(=O)[nH]c1=O | – | 0.411 µM [rising, partial curve] | – |
| O=C(CN1C(=O)NC2(CCOc3ccccc32)C1=O)NCc1ccc(F)cc1 (stereo unspecified) | -14.5 | 2.59 µM [rising, partial curve, poor fit] | – |
| Cc1ccc(S(=O)(=O)c2nc(-c3ccccc3)oc2NCCCN2CCOCC2)cc1 | – | 6.51 µM [rising, single point] | 2.91 µM [rising, single point] |
| Cc1ccc(-n2c(Cc3cccs3)nnc2SCC(=O)Nc2ccc(F)c(F)c2)cc1 | -53.3 | – | 29.1 µM [falling, single point] |
| Cc1cccc(C)c1OCC(=O)Nc1nnc(C2CCCO2)s1 (stereo unspecified) | 32 | 4.11 µM [rising, full curve] | 4.61 µM [rising, full curve, poor fit] |
| Cc1nnc(SCC(=O)O)o1 | 7.71 | 6.51 µM [falling, single point] | – |
| Clc1ccc(OCc2nc(-c3ccc(Br)o3)no2)cc1 | 56.1 | 16.4 µM [rising, partial curve] | 13 µM [rising, partial curve] |
| COc1ccc(CCNC(=O)C2CCN(S(=O)(=O)c3ccc4nc5c(c(C(=O)O)c4c3)CCCC5)CC2)cc1OC | -9.23 | 29.1 µM [rising, single point] | – |
| O=C(COc1ccccc1)NCC(=O)N/N=C/c1cccs1 | -6.13 | 7.31 µM [falling, single point] | – |
| Cc1ccc(NC(=O)Cc2noc3ccccc23)c(C)c1 | 17.2 | 0.0259 µM [rising, partial curve, poor fit] | – |
| COc1cccc(NC(=O)COC(=O)/C=C/c2c(C)nn(-c3ccccc3)c2C)c1 | -14.9 | 8.2 µM [rising, partial curve, poor fit] | – |
| CCOC(=O)C(=O)/C(=C\N(C)C)c1onc(-c2ccccc2Cl)c1C(=O)OC | 14 | – | 5.8 µM [falling, partial curve] |
| COc1ccc(OC)c(NC(=O)CSc2nnnn2-c2ccccc2F)c1 | -7.49 | 1.46 µM [rising, single point] | – |
| Cc1ccccc1COc1ccc(/C(O)=C2/C(=O)C(=O)N(CCCn3ccnc3)C2c2ccco2)cc1 (stereo unspecified) | 1.54 | – | – |
| CCn1c(SCC(=O)NCc2ccco2)nc2c(c1=O)SC(C)C2 (stereo unspecified) | – | – | 0.58 µM [rising, single point] |

Sorted by count of non-hydrogen atoms (rising): part of the list above

| Compound | cell number change [%] | AC50 [1] | AC50 [2] |
| --- | --- | --- | --- |
| Clc1ccc(OCc2nc(-c3ccc(Br)o3)no2)cc1 | 56.1 | 16.4 µM [rising, partial curve] | 13 µM [rising, partial curve] |
| Cc1ccc(-n2c(Cc3cccs3)nnc2SCC(=O)Nc2ccc(F)c(F)c2)cc1 | -53.3 | – | 29.1 µM [falling, single point] |
| Cc1ccccc1COc1ccc(/C(O)=C2/C(=O)C(=O)N(CCCn3ccnc3)C2c2ccco2)cc1 (stereo unspecified) | 1.54 | – | – |

Additional structures.

| Compound | cell number change [%] | AC50 [1] | AC50 [2] |
| --- | --- | --- | --- |
| Cc1ccc(C)c(NC(=O)C(Sc2nc3ccc(C)cc3[nH]2)c2ccccc2)c1 (stereo unspecified) | – | 6.51 µM [rising, full curve] | – |
| COc1ccccc1CN1CC(C(=O)NCCn2nc(C)cc2C)CCC1=O (stereo unspecified) | -2.31 | 0.00517 µM [rising, full curve, poor fit] | – |
| N#Cc1sc2nc(-c3ccccc3)cc(-c3ccco3)c2c1N | 38.9 | 0.092 µM [rising, full curve] | 0.0731 µM [rising, full curve] |
| CC1CCCCN1C(=O)Cn1cc(C=O)c2ccccc21 (stereo unspecified) | -0.74 | 1.16 µM [falling, full curve, poor fit] | – |
| CCOC(=O)Cn1c(=O)c2c(nc3n2CCCN3CCc2ccccc2)n(C)c1=O | -13.4 | – | 0.259 µM [rising, full curve] |
| CCC(C)NC(=O)CNC(=S)N(Cc1ccccc1F)C1CCCCC1 (stereo unspecified) | 37.4 | 3.26 µM [rising, single point] | 0.517 µM [rising, full curve] |
| CC(OC(=O)CN1C(=O)NC2(CCCC2)C1=O)C(=O)c1ccccc1 (stereo unspecified) | 5 | – | – |
| COc1ccccc1-n1c(SCC(=O)Nc2ccccc2C)nc(O)cc1=O | 9.98 | – | – |
| CCCCCc1cc(=O)oc2c(C(CCN(CC)CC)c3cc(OC)c(OC)c(OC)c3)c(OC)cc(OC)c12 (stereo unspecified) | 5.56 | 0.731 µM [rising, full curve] | – |
| O=C(Nc1cccc(C(F)(F)F)c1)N1CCN(C(=O)Nc2cccc(C(F)(F)F)c2)CC1 | -23.7 | 0.651 µM [falling, full curve, poor fit] | 3.26 µM [falling, full curve, poor fit] |
| O=C(NCc1ccccn1)c1ccc(OC2CCN(Cc3ccccc3)CC2)cc1 | 24.3 | 29.1 µM [rising, single point] | – |
| O=C(O)/C(=C\c1ccc(Cl)cc1)c1ccc(S(=O)(=O)N2CCCC2)s1 | 14.2 | 6.51 µM [rising, single point] | 0.00461 µM [rising, full curve, poor fit] |
| Cc1ccc(/C=N/NC(=O)Cn2ccc(C(F)(F)F)n2)o1 | -5.02 | – | 0.731 µM [falling, full curve, poor fit] |
| CCOC(=O)[C@H]1[C@H]2COc3ccc(Cl)cc3[C@@H]2N2C(=O)CN(Cc3ccc(F)cc3)C(=O)[C@@]12C | 4.85 | 1.46 µM [falling, single point] | – |
| Oc1ccccc1OCC(O)c1ccccc1 (stereo unspecified) | -8.57 | 29.1 µM [rising, partial curve, poor fit] | – |
| COc1ccc(Cc2nc(-c3cccnc3)no2)cc1OC | 12.8 | – | – |
| CCOc1cc(C(=O)N2CCOCC2)ccc1OCc1ccccc1 | 5.36 | 6.51 µM [rising, single point] | – |
| Cc1ccc(S(=O)(=O)N2CCOCC2)cc1C(=O)N1C(=O)c2cccc(N)c2C1=O | 11.6 | 0.517 µM [falling, full curve, poor fit] | – |
| Cc1ccc(NC(=S)NCc2ccc3c(c2)OCO3)c(C)c1 | 55.8 | 29.1 µM [rising, partial curve] | 0.326 µM [rising, full curve] |
